This assay relates to BDF1 mice, B16 melanoma ip, median survival T/C. As to the kind of experiment: NCI In Vivo Anticancer Drug Screen. Data for tumor model B16 Melanoma (intraperitoneal) in B6D2F1 (BDF1) mice. To be noted: T/C endpoint: median survival time, higher T/C = longer survival. Summed up:
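Compounds were tested in mice carrying transplantable tumors. Survival or tumor size was recorded, and each value is the treated-group measurement (T) divided by that of the vehicle-treated control group (C).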

The mark [1] stands for this setting: dose: 50.0 mg/kg/injection, schedule: Q01DX009 (ip), vehicle: Klucel (hydroxypropylcellulose) (HPC).
Setting [2] is: dose: 100.0 mg/kg/injection, schedule: Q01DX009 (ip), vehicle: Klucel (hydroxypropylcellulose) (HPC).
Where [3] appears, read: dose: 200.0 mg/kg/injection, schedule: Q01DX009 (ip), vehicle: Klucel (hydroxypropylcellulose) (HPC).
[4] abbreviates: dose: 400.0 mg/kg/injection, schedule: Q01DX009 (ip), vehicle: Klucel (hydroxypropylcellulose) (HPC).
Setting [5] is: dose: 400.0 mg/kg/injection, schedule: Q01DX009 (ip), vehicle: saline with Tween-80.
Setting [6] is: dose: 50.0 mg/kg/injection, schedule: Q01DX009 (ip), vehicle: saline.
Setting [7] is: dose: 25.0 mg/kg/injection, schedule: Q01DX009 (ip), vehicle: Klucel (hydroxypropylcellulose) (HPC).
Where [8] appears, read: dose: 400.0 mg/kg/injection, schedule: Q01DX009 (ip), vehicle: saline.

The list is a part of this screen's results and no random one: it gathers tests that were run many times, whatever their T/C, doses with no T/C, and many T/C values between a quarter and a half above the control. Other doses and runs of a compound stand elsewhere. T/C gives the treated animals as a percentage of the vehicle group. Some entries give survivors of the animals treated and no T/C: the source files T/C as zero there, which appears to mark a toxic dose or a test without result, not a measured value. Some doses without a T/C left all or most animals alive at the check, yet need not have been tolerated: survival well below the control is almost never listed, so the zero probably covers shortened survival too. Survivors were counted at the toxicity check, usually on the fifth day, unless a day is given; later deaths do not show. Schedule codes are those of the source, taken here to give the interval after Q, in days (D) or hours (H), and the number of doses after X. Where survival is the endpoint, this PubChem deposit counts one and a half times the control or more as active, and values a quarter to a half above the control carry no call in these data; other NCI protocols may use other cut-offs. Some T/C values are followed by the survivors on the day toxicity was checked, most often the fifth; without a count, all were alive then. Numbered stars: 1 amine (or outer) side, 2 acyl side, 3 side chain; on linkers, the order of the positions; unused ones are H or OH. Bridge positions count the residues as written; N and C are the ends. Square brackets hold non-standard residues; d marks the D form. Peptide text beside a SMILES is read from it. I, II: the chains in the order shown. Actinocin(1to9) = Cc1c2oc3c(C)ccc(C(=O)[*:2])c3nc-2c(C(=O)[*:1])c(N)c1=O; NMeV = CN[CH](C(=O)O)C(C)C; Sar = CNCC(=O)O

`NC(=O)N1CCN(CCCN2c3ccccc3Sc3cc(Cl)ccc32)CC1`: the survivor count (dose: 1.56 mg/kg/injection, schedule: Q01DX009 (ip), vehicle: Klucel (hydroxypropylcellulose) (HPC)) is on record as 10 of 10; the survivor count under setting [1] was 5 of 10; the survivor count under setting [2] is 0 of 10; the survivor count under setting [3] is listed as 0 of 10; the survivor count under setting [4] is given as 0 of 10.
On to `CCSC(=O)N1c2ccc(OC)cc2C=CC1C#N` (stereo not drawn), for which the T/C reads like this: (dose: 200.0 mg/kg/injection, schedule: Q01DX009 (ip), vehicle: saline with Tween-80) 125 % of control; under setting [5], 129 % of control.
For the compound `Cc1c(C)c([N+](=O)[O-])c(Br)c(C)c1[N+](=O)[O-]`, the survivor count is, setting by setting: (dose: 50.0 mg/kg/injection, schedule: Q04DX003 (ip), vehicle: Klucel (hydroxypropylcellulose) (HPC)) 10 of 10; (dose: 400.0 mg/kg/injection, schedule: Q04DX003 (ip), vehicle: Klucel (hydroxypropylcellulose) (HPC)) 10 of 10.
With `CCCCCCCCCCCCCCCC(=O)OCC1OC(n2ccc(N)nc2=O)C(O)C1O` (stereo not drawn), the T/C is 142 % of control (dose: 7.5 mg/kg/injection, schedule: Q01DX009 (ip), vehicle: saline with Tween-80); 137 % of control [9 of 10 alive] (dose: 8.0 mg/kg/injection, schedule: Q01DX009 (ip), vehicle: saline with Tween-80); 140 % of control (dose: 15.0 mg/kg/injection, schedule: Q01DX009 (ip), vehicle: saline with Tween-80); 144 % of control (dose: 18.75 mg/kg/injection, schedule: Q01DX001 (ip), vehicle: saline); 143 % of control (dose: 50.0 mg/kg/injection, schedule: Q04DX003 (ip), vehicle: saline with Tween-80). For the same compound, the survivor count was 6 of 6 (dose: 60.0 mg/kg/injection, schedule: Q01DX009 (ip), vehicle: saline with Tween-80); 10 of 10 (dose: 100.0 mg/kg/injection, schedule: Q04DX003 (ip), vehicle: saline with Tween-80); 6 of 6 (dose: 120.0 mg/kg/injection, schedule: Q01DX009 (ip), vehicle: saline with Tween-80); 8 of 10 (dose: 150.0 mg/kg/injection, schedule: Q01DX001 (ip), vehicle: saline); 10 of 10 (dose: 200.0 mg/kg/injection, schedule: Q04DX003 (ip), vehicle: saline with Tween-80); 9 of 10 (dose: 300.0 mg/kg/injection, schedule: Q01DX001 (ip), vehicle: saline). For the same compound, the survivor count (dose: 400.0 mg/kg/injection, schedule: Q04DX003 (ip), vehicle: saline with Tween-80) was 9 of 10.
In the case of `COc1ccc(CC2C(=O)NC(C)C(=O)N(C)C3C(=O)N(C)C(Cc4ccc(O)c(c4)Oc4ccc(cc4)C3O)C(=O)NC(C)C(=O)NC(C)C(=O)N2C)cc1` (stereo not drawn) (tested in a mixture with another compound), the T/C is, setting by setting: (dose: 0.12 mg/kg/injection, schedule: Q01DX009 (ip), vehicle: saline with Tween-80) 146 % of control; (dose: 0.25 mg/kg/injection, schedule: Q01DX009 (ip), vehicle: saline with Tween-80) 147 % of control; (dose: 0.5 mg/kg/injection, schedule: Q01DX009 (ip), vehicle: saline with Tween-80) 149 % of control; (dose: 125.0 micrograms/kg/injection, schedule: Q01DX009 (ip), vehicle: saline) 132 % of control; (dose: 500.0 micrograms/kg/injection, schedule: Q01DX009 (ip), vehicle: saline) 139 % of control; (dose: 1000.0 micrograms/kg/injection, schedule: Q01DX009 (ip), vehicle: saline) 148 % of control. Besides, the T/C (dose: 4000.0 micrograms/kg/injection, schedule: Q01DX009 (ip), vehicle: saline) was 129 % of control. For the same compound, the survivor count (dose: 4.0 mg/kg/injection, schedule: Q01DX009 (ip), vehicle: saline with Tween-80) is given as 7 of 10.
In the case of `CCC(C)C1NC(=O)C(NC(=O)c2c3nc4c(C(=O)NC5C(=O)NC(C(C)C)C(=O)N6CCCC6C(=O)N(C)CC(=O)N(C)C(C(C)C)C(=O)OC5C)ccc(C)c4oc-3c(C)c(=O)c2N)C(C)OC(=O)C(C(C)C)N(C)C(=O)CN(C)C(=O)C2CCCN2C1=O` (stereo not drawn) (I: TIP[Sar][NMeV] / II: TVP[Sar][NMeV]; ester I:1-I:C, II:1-II:C; linker I:N-II:N via Actinocin(1to9); configuration not given here), the T/C was 127 % of control (dose: 0.4 mg/kg/injection, schedule: Q01DX001 (ip), vehicle: water); 136 % of control (dose: 50.0 micrograms/kg/injection, schedule: Q01DX009 (ip), vehicle: water); 136 % of control (dose: 150.0 micrograms/kg/injection, schedule: Q04DX003 (ip), vehicle: water); 144 % of control (dose: 300.0 micrograms/kg/injection, schedule: Q04DX003 (ip), vehicle: water). For the same compound, the survivor count (dose: 0.8 mg/kg/injection, schedule: Q01DX001 (ip), vehicle: water) is given as 7 of 10; the survivor count (dose: 1.6 mg/kg/injection, schedule: Q01DX001 (ip), vehicle: water) is 0 of 10; the survivor count (dose: 100.0 micrograms/kg/injection, schedule: Q01DX009 (ip), vehicle: water) was 10 of 10; the survivor count (dose: 600.0 micrograms/kg/injection, schedule: Q04DX003 (ip), vehicle: water) is recorded as 9 of 10.
Regarding `CCN(CC)CCCC(C)NC/C=C/CNC(C)CCCN(CC)CC` (stereo not drawn), under setting [6], the survivor count is recorded as 5 of 10.
Consider `CC1C=C(Br)C(=O)c2ccccc2N1S(C)(=O)=O` (stereo not drawn), for which the survivor count reads like this: (dose: 75.0 mg/kg/injection, schedule: Q01DX009 (ip), vehicle: Klucel (hydroxypropylcellulose) (HPC)) 1 of 10; (dose: 150.0 mg/kg/injection, schedule: Q01DX009 (ip), vehicle: Klucel (hydroxypropylcellulose) (HPC)) 0 of 10; (dose: 300.0 mg/kg/injection, schedule: Q01DX009 (ip), vehicle: Klucel (hydroxypropylcellulose) (HPC)) 0 of 10.
With `COc1cc2c(cc1OC)C(OC)N(C)c1c-2ccc2cc3c(cc12)OCO3` (stereo not drawn), the T/C (dose: 12.5 mg/kg/injection, schedule: Q01DX009 (ip), vehicle: saline with Tween-80) was 126 % of control. For the same compound, the survivor count is 9 of 10 (dose: 50.0 mg/kg/injection, schedule: Q01DX009 (ip), vehicle: saline with Tween-80) and 6 of 10 (dose: 100.0 mg/kg/injection, schedule: Q01DX009 (ip), vehicle: saline with Tween-80).
Consider `CC(C)CN(C)/N=N/c1nc[nH]c1C(N)=O`, for which, for the setting “dose: 37.5 mg/kg/injection, schedule: Q01DX009 (ip), vehicle: carboxymethylcellulose (CMC)”, the T/C was 135 % of control. For the same compound, the survivor count is 5 of 6 (dose: 150.0 mg/kg/injection, schedule: Q01DX009 (ip), vehicle: carboxymethylcellulose (CMC)) and 0 of 6 (dose: 300.0 mg/kg/injection, schedule: Q01DX009 (ip), vehicle: carboxymethylcellulose (CMC)).
With `C=C1C(=O)OC2CC3(C)CC(O)C(O)C(=C)C3CC12` (stereo not drawn), the survivor count under setting [3] is 7 of 10.
Turning to `CCC(N)CC`, where the note is “dose: 100.0 mg/kg/injection, schedule: Q01DX009 (ip), vehicle: saline”, the T/C was 132 % of control.
On to `COc1cc(C(=O)N=Nc2c(O)[nH]c3ccc(Br)cc23)cc(OC)c1OC`, for which the survivor count is, setting by setting: under setting [3], 10 of 10; under setting [4], 10 of 10.
In the case of `CCCCn1cnc2c(N)ncnc21`, the survivor count was 6 of 6 under setting [7] and 5 of 6 under setting [2].
Take `Cc1cccc(C)c1NC(=S)N(C)C`: the survivor count is 9 of 10 under setting [7]; 6 of 10 under setting [1]; 0 of 10 under setting [2]; 0 of 10 under setting [3]; 0 of 10 under setting [4].
Regarding `COc1cc2c(c(OC)c1OC)-c1ccc(SC)c(=O)cc1[C@@H](NC1OC(CO)C(O)C(O)C1O)CC2` (stereo partly drawn), the survivor count runs as follows: under setting [6], 6 of 10; (dose: 200.0 mg/kg/injection, schedule: Q01DX009 (ip), vehicle: saline) 2 of 10; under setting [8], 0 of 10.
Turning to `CCC(C)(CC)OC(N)=O`, the survivor count is, setting by setting: under setting [5], 0 of 10; under setting [8], 8 of 10.

Source of the values: PubChem BioAssay AID192 (DTP/NCI, 2004).
